The target in the assay is integrin β1 (human (endogenous in Caco-2)) (UniProt P05556). Description: co-IP.

The chains behind the UniProt entries cited, without tags or fusion partners. Residues count along the entry.
UniProt P05556: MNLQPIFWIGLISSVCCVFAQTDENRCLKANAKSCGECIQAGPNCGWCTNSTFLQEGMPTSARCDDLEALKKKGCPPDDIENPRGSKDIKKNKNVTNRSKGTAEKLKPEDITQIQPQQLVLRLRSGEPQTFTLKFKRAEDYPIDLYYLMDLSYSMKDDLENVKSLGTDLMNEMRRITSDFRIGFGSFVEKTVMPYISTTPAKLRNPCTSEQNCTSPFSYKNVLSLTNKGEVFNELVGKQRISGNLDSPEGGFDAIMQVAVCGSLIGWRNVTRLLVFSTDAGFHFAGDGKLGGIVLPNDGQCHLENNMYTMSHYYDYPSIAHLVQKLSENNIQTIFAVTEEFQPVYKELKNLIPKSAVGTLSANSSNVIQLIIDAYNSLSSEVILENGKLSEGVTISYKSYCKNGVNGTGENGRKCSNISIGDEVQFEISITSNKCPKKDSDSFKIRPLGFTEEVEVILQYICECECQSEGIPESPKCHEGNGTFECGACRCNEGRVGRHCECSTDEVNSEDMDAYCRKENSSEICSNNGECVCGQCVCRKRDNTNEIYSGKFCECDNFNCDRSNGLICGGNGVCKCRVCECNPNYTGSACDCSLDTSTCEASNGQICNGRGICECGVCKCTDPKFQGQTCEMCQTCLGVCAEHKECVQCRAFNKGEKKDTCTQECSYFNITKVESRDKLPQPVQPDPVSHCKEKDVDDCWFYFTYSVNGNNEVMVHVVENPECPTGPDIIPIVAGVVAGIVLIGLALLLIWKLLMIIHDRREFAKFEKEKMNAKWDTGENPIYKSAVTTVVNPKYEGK
UniProt P43261, residues 40-934: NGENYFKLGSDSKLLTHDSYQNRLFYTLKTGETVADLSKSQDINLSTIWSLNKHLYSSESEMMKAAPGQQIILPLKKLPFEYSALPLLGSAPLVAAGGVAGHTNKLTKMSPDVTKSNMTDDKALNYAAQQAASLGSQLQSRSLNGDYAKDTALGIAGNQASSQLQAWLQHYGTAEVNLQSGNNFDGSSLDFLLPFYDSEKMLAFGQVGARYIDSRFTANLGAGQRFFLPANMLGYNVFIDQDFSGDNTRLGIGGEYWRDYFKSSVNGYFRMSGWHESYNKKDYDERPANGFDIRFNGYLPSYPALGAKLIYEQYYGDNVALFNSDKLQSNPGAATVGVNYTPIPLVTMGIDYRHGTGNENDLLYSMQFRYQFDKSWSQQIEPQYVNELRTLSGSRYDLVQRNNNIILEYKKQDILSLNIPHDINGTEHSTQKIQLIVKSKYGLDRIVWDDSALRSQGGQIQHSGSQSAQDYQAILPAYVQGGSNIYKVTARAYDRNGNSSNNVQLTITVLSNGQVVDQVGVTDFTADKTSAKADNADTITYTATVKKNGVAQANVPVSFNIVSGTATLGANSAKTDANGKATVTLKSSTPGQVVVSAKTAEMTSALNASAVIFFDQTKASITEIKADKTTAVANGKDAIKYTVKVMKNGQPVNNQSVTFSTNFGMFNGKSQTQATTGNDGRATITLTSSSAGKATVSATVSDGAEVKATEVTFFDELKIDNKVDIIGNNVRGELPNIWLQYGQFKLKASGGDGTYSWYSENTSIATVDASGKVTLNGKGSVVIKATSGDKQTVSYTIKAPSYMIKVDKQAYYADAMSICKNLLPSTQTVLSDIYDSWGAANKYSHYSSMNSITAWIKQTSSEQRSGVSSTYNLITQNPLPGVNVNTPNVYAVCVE

The source of these data is paper PMC6343519.

These are yes or no findings as the source states them, for the method shown. In cells and extracts the contact can be indirect. Some entries that bind do so weakly or less than the wild type.

As to intimin (from UniProt P43261 40-934), the binding result is recorded as “binds”.
